Assay results published in PubChem BioAssay AID1688 (National Center for Advancing Translational Sciences (NCATS), 2009).
Several values for one entry are separate records, joined by “and”; a condition that tells them apart may be missing. Equal entries are not always repeated. Hit rate of the full screen: of about 220,000 compounds, about 2,400 (1.1%) were called active. The inconclusive results got no clear call from the source; some entries with a clear call stand among them for comparison. Calls follow the shape of the dose curve; as a rule, active = well fitted inhibition curve with a large enough effect; inconclusive = small, poorly fitted or top-dose-only effect, or effect the other way; inactive = no such curve, though single readings can be large or run the other way. Potencies of inconclusive entries are doubtful fits and often do not repeat.

Experiment: qHTS Multiplex Assay to Identify Dual Action Probes in a Cell Model of Huntington: Aggregate Formation (GFP); also: nearly all actives have a fitted effect of over 60% in size
Conditions: PC12 HttQ103-GFP aggregates, Acumen cytometry, 40 h; activity change, negative = inhibition: at 46.1 µM (top of the series)
In short: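 PC12 cells stably carrying ecdysone-inducible HTT exon 1 Q103–GFP were induced with tebufenozide (100 nM final) and treated with library compounds in titration. GFP aggregates in lysates were counted by laser scanning cytometry.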
% is scaled to controls: 0 for no effect and ±100 for the full control effect; potency is read from the fitted curve at half-maximal effect.

Q: Which Potency does the source give for `Cc1cc(C=C2C(=O)NC(=O)NC2=O)c(C)n1-c1ccc2c(c1)OCO2` here?
A: The Potency was “inactive”.

Q: With `CN1CCc2nc3sc(C#N)c(N)c3c(-c3cccs3)c2C1` as the molecule, how does the Potency read?
A: The Potency was “inactive”.

Q: For `O=c1[nH]c(=S)[nH]c(O)c1N=Nc1ccc(S(=O)(=O)N2CCc3ccccc32)cc1`, which Potency is on record?
A: Its Potency is inconclusive: 11.2 µM [inhibitor, partial curve, poor fit].

Q: With `Cc1ccc(S(=O)(=O)N2CCC(C(=O)N3CCC4(CC3)OCCO4)CC2)cc1` as the molecule, how does the Potency read?
A: The Potency was “inactive”.

Q: For `Cc1cccc(NC(=O)CSc2nnc([C@@H](N)Cc3c[nH]c4ccccc34)o2)c1C`, which Potency is on record?
A: Its Potency is inconclusive: 14.1 µM [activator, partial curve].

Q: For `CCn1c(O)c(C=Nc2ccc(N3CCOCC3)c(Br)c2)c(=O)n(CC)c1=S`, which Potency is on record?
A: Its Potency is inconclusive: 35.5 µM [inhibitor, single point].

Q: For `COc1cc(NS(=O)(=O)c2ccc3c(c2)oc(=O)n3C)cc(OC)c1OC`, which Potency is on record?
A: Its Potency is inconclusive: 14.1 µM [inhibitor, partial curve].

Q: For `O=C(COc1ccc(S(=O)(=O)N2CCOCC2)cc1)N1CCN(Cc2ccc3c(c2)OCO3)CC1`, which Potency is on record?
A: The Potency was inconclusive: 20 µM [inhibitor, single point].

Q: With `C=CCN1CC[C@]23CCCCC2[C@H]1Cc1ccc(O)cc13` (some centres undefined) as the molecule, how does the Potency read?
A: Its Potency is inconclusive: 35.5 µM [inhibitor, single point].

Q: With `O=C(c1ccco1)c1cn(Cc2ccc(Cl)cc2)c2ccccc12` as the molecule, how does the Potency read?
A: Its Potency is inconclusive: 25.1 µM [inhibitor, single point].

Q: With `O=c1c2ccccc2[se]n1-c1ccccc1` as the molecule, how does the Potency read?
A: The Potency was “inactive and inconclusive: 35.5 µM [inhibitor, single point]”.

Q: Which Potency does the source give for `CC(C)n1c(=O)c(C=Nc2ccc(Br)cc2)c(O)n(Cc2ccco2)c1=O` here?
A: Its Potency is inconclusive: 14.1 µM [activator, single point].

Q: Which Potency does the source give for `CCc1nnc(NS(=O)(=O)c2ccc(N=Cc3c(O)n(-c4ccc(Cl)cc4)c(=O)[nH]c3=O)cc2)s1` here?
A: Its Potency is “inactive”.

Q: With `O=C(c1cc(-c2ccccc2)on1)N1CCC2(CC1)OCCO2` as the molecule, how does the Potency read?
A: Its Potency is “inactive”.

Q: Which Potency does the source give for `CCN(CC)CCN=Cc1c(O)n(Cc2ccccc2)c(=O)[nH]c1=O` here?
A: Its Potency is “inactive”.

Q: Which Potency does the source give for `CCN(CC)CCNCc1nc2ccccc2c(=O)n1-c1ccc(F)cc1` here?
A: Its Potency is “inactive”.

Q: Which Potency does the source give for `COc1ccc2[nH]cc(CCN(C)C)c2c1` here?
A: The Potency was “inactive”.

Q: With `O=C(CNC(=O)OCc1ccccc1)Nc1ccc(Br)cc1C(=O)c1ccccc1` as the molecule, how does the Potency read?
A: The Potency was inconclusive: 12.6 µM [inhibitor, single point].

Q: For `CC(C)CCNC(=O)c1c(N)n(Cc2ccc3c(c2)OCO3)c2nc3ccccc3nc12`, which Potency is on record?
A: The Potency was inconclusive: 35.5 µM [inhibitor, single point].

Q: With `O=C1CN=C(c2cccs2)c2c(sc3c2CCCC3)N1` as the molecule, how does the Potency read?
A: Its Potency is “inactive”.

Q: With `C1=C(c2c[nH]c3ccccc23)CCN(Cc2ccccc2)C1` as the molecule, how does the Potency read?
A: The Potency was inconclusive: 14.1 µM [inhibitor, single point].

Q: For `CN(C)S(=O)(=O)c1ccc(C(=O)NNc2nc(-c3ccccc3)c3cc(Br)ccc3n2)cc1`, which Potency is on record?
A: Its Potency is inconclusive: 11.2 µM [inhibitor, single point].

Q: For `Cc1ccc(OCC(=O)N2CCN(C)CC2)c(Br)c1`, which Potency is on record?
A: Its Potency is “inactive”.

Q: With `O=CC(Cl)P(=O)(N1CCCCC1)N1CCCCC1` (centres undefined) as the molecule, how does the Potency read?
A: Its Potency is inconclusive: 14.1 µM [inhibitor, single point].

Q: For `CN(C)c1ccc(NC(=O)CN2C(=O)CN=C(c3ccccc3)c3ccccc32)cc1`, which Potency is on record?
A: The Potency was “inactive”.

Q: For `COc1ccc(C2=NCC(=O)N(CC(=O)NCc3ccco3)c3sc4c(c32)CCCC4)cc1OC`, which Potency is on record?
A: The Potency was inconclusive: 7.94 µM [activator, partial curve].

Q: Which Potency does the source give for `COCCCn1c(N)c(C(=O)NCCC(C)C)c2nc3ccccc3nc21` here?
A: Its Potency is inconclusive: 1 µM [inhibitor, single point].

Q: For `N=Cc1c(O)n(-c2ccc(C34CC5CC(CC(C5)C3)C4)cc2)c(=O)[nH]c1=O`, which Potency is on record?
A: Its Potency is inconclusive: 12.6 µM [activator, single point].

Q: For `CCCCn1c(O)c(C(CC)=NCc2cc(OC)cc(OC)c2)c(=O)[nH]c1=O`, which Potency is on record?
A: The Potency was inconclusive: 14.1 µM [inhibitor, single point].

Q: For `NP(=O)(OCC(F)(F)F)Oc1cccc2ccccc12` (centres undefined), which Potency is on record?
A: Its Potency is inconclusive: 35.5 µM [inhibitor, single point].

Q: For `CCN(CC)C(=O)c1ccc(NC(=O)Cn2nc(C)c3ccccc3c2=O)cc1`, which Potency is on record?
A: The Potency was “inactive”.

Q: Which Potency does the source give for `Cc1ccc(N)c(C(=O)c2ccc(Br)cc2)c1` here?
A: Its Potency is active: 7.08 µM.

Q: With `Cc1sc2ncn(CC(=O)N3CCC4(CC3)OCCO4)c(=O)c2c1C` as the molecule, how does the Potency read?
A: Its Potency is inconclusive: 0.891 µM [activator, full curve, poor fit].

Q: Which Potency does the source give for `Cc1ccc2c(Cl)cc(Cl)c(OCC(=O)N(C(C)C)C(C)C)c2n1` here?
A: The Potency was inconclusive: 14.1 µM [inhibitor, single point].

Q: Which Potency does the source give for `O=C(CNC(=O)c1ccccc1)Nc1ccc(Br)cc1C(=O)c1ccccc1` here?
A: The Potency was inconclusive: 31.6 µM [inhibitor, partial curve].

Q: Which Potency does the source give for `CN1C(=O)C(Cc2ccsc2)C(=O)N(C)C1=O` here?
A: Its Potency is “inactive”.

Q: For `N#CC(C#N)=NNc1ccc(S(N)(=O)=O)cc1`, which activity change, negative = inhibition is on record?
A: Its activity change, negative = inhibition is inactive: -13.5% [at 9.22 µM].

Q: With `CCC(=NC(C)c1ccccc1)c1c(O)n(C)c(=O)n(C)c1=O` (centres undefined) as the molecule, how does the Potency read?
A: The Potency was inconclusive: 3.98 µM [inhibitor, full curve].

Q: With `CCOc1cc(-c2c(C#N)c(=O)[nH]c3c2c(C)nn3-c2ccc(F)cc2)ccc1O` as the molecule, how does the Potency read?
A: Its Potency is active: 12.6 µM.

Q: With `Cc1nc2cc(F)ccc2n1C1CCN(Cc2nnnn2CCc2ccccc2)CC1` as the molecule, how does the Potency read?
A: Its Potency is inconclusive: 28.2 µM [inhibitor, partial curve].

Q: Which Potency does the source give for `Cc1ccsc1-c1nc(CSCC(=O)N2CCC3(CC2)OCCO3)c(C)o1` here?
A: The Potency was inconclusive: 11.2 µM [inhibitor, single point].

Q: Which activity change, negative = inhibition does the source give for `C=CCn1c(O)c(C=NC2CCN(Cc3ccccc3)CC2)c(=O)[nH]c1=O` here?
A: The activity change, negative = inhibition was inactive: 3.49% [at 9.22 µM].

Q: With `CCOC(=O)C1CCN(/C=C2/C(=O)NC(=S)N(c3ccccc3F)C2=O)CC1` as the molecule, how does the Potency read?
A: Its Potency is inconclusive: 17.8 µM [activator, single point].

Q: Which Potency does the source give for `O=c1[nH]c(O)c(N=Nc2ccc([N+](=O)[O-])cc2)c(=O)[nH]1` here?
A: Its Potency is inconclusive: 25.1 µM [inhibitor, single point].

Q: Which Potency does the source give for `O/N=C/c1c[nH]c2ccccc12` here?
A: The Potency was inconclusive: 12.6 µM [inhibitor, partial curve].

Q: For `O=C(N/N=C/c1cc(Br)c(Br)s1)c1ccncc1`, which Potency is on record?
A: The Potency was inconclusive: 12.6 µM [inhibitor, partial curve].

Q: With `Nc1c(C(=O)NCc2ccco2)c2nc3ccccc3nc2n1CCN1CCCCC1` as the molecule, how does the Potency read?
A: Its Potency is active: 3.16 µM.

Q: For `CCCCn1c(O)c(C(CC)=NCc2ccc(F)cc2)c(=O)[nH]c1=O`, which Potency is on record?
A: The Potency was inconclusive: 35.5 µM [inhibitor, single point].

Q: With `COc1ccc(NP(=O)(Oc2ccc(Cl)cc2)Oc2ccc(Cl)cc2)cc1OC` as the molecule, how does the Potency read?
A: Its Potency is inconclusive: 35.5 µM [inhibitor, single point].

Q: With `Cc1cc(C)cc(-n2c(O)c(C=Nc3ccc(N4CCOCC4)cc3)c(=O)[nH]c2=S)c1` as the molecule, how does the Potency read?
A: Its Potency is inconclusive: 12.6 µM [activator, partial curve].

Q: For `Cc1cc(N(CCCl)CCCl)ccc1/C=N/NC(=O)c1ccco1`, which Potency is on record?
A: The Potency was inconclusive: 35.5 µM [inhibitor, single point].

Q: Which Potency does the source give for `Cc1onc(-c2ccccc2Cl)c1C(=O)NCc1ccccn1` here?
A: The Potency was active: 0.891 µM.

Q: Which Potency does the source give for `CC(O)(CS(=O)(=O)c1ccccc1)C(=O)Nc1cccc(C(F)(F)F)c1` (centres undefined) here?
A: Its Potency is “inactive”.

Q: Which Potency does the source give for `CC1CCCC(C2(O)C(=O)Nc3ccccc32)C1=O` (centres undefined) here?
A: Its Potency is inconclusive: 0.0891 µM [inhibitor, full curve, poor fit].

Q: With `O=C(N/N=C/c1ccccc1OC(=O)N1CCOCC1)c1cccs1` as the molecule, how does the Potency read?
A: The Potency was inconclusive: 35.5 µM [inhibitor, single point].

Q: Which Potency does the source give for `CCOC(=O)c1c(-c2ccc(OC)cc2)oc2ccc(OC(=O)N(C)C)cc12` here?
A: Its Potency is inconclusive: 35.5 µM [inhibitor, single point].

Q: With `CCCCCCn1c(O)c(C=NC2CCN(Cc3ccccc3)CC2)c(=O)[nH]c1=O` as the molecule, how does the Potency read?
A: The Potency was inconclusive: 0.355 µM [activator, full curve, poor fit].

Q: For `O=C1c2ccccc2C2(c3ccc(Cl)cc3)NCCN12` (centres undefined), which Potency is on record?
A: The Potency was inconclusive: 35.5 µM [inhibitor, single point].

Q: With `C[C@H]1CCC/C=C/C2C[C@H](O)CC2[C@H](O)/C=C/C(=O)O1` (some centres undefined) as the molecule, how does the Potency read?
A: The Potency was active: 2.82 µM.

Q: Which Potency does the source give for `Cn1c(=O)oc2cc(S(=O)(=O)N3CCC(C(=O)N4CC=C(c5ccccc5)CC4)CC3)ccc21` here?
A: The Potency was inconclusive: 35.5 µM [inhibitor, single point].

Q: With `Cc1ccsc1C(=O)C1CCCN(Cc2c(C)nn(C(C)C)c2C)C1` (centres undefined) as the molecule, how does the Potency read?
A: Its Potency is inconclusive: 35.5 µM [inhibitor, single point].

Q: With `CCn1c(P(C)(=O)O)nc2cc(NC(=O)c3ccccc3F)ccc21` as the molecule, how does the Potency read?
A: Its Potency is inconclusive: 1.26 µM [inhibitor, single point].

Q: Which Potency does the source give for `Cc1cccc(C)c1NC(=O)c1cccn(Cc2ccc3c(c2)OC(F)(F)O3)c1=O` here?
A: The Potency was inconclusive: 35.5 µM [inhibitor, single point].

Q: With `Nc1ccc(N=Nc2ccccc2)cc1` as the molecule, how does the Potency read?
A: The Potency was inconclusive: 17.8 µM [activator, partial curve].

Q: With `C[C@@H]1CC[C@H]2[C@@H](C)C(=O)O[C@@H]3OC4(C)CC[C@@H]1C32OO4` (some centres undefined) as the molecule, how does the Potency read?
A: Its Potency is active: 3.16 µM.

Q: With `N#CC(C#N)=Cc1ccc(-c2ccccc2F)o1` as the molecule, how does the Potency read?
A: Its Potency is inconclusive: 14.1 µM [activator, partial curve].

Q: For `O=C(c1ccccc1F)c1cn(Cc2ccccc2)c2ccccc12`, which Potency is on record?
A: Its Potency is inconclusive: 35.5 µM [inhibitor, single point].

Q: Which Potency does the source give for `O=Cc1cn(Cc2cccc([N+](=O)[O-])c2)c2ccccc12` here?
A: The Potency was “inactive”.
